Experimental data reported in the supplement of paper PMC7238544.
Where a name gives a salt, the structure may show the parent alone. ± gives the standard deviation of the averaged measurements. The list shows a part of the results. The data scatter; read single values as rough.

How the values were obtained:
[1] = system: hAMSC donor 1; assay: Hoechst total cell count ratio vs vehicle control; higher = more cells (less toxicity)
[2] = system: hAMSC donor 2; assay: as above
[3] = system: hAMSC donor 1; assay: transgenic luciferase activity (RLU/mg protein) fold change vs vehicle control (ratio); higher = more transgene expression
[4] = system: hAMSC donor 2; assay: as above
[5] = system: hAMSC donor 1; assay: transfection efficiency (EGFP+ cells / Hoechst count) fold change vs vehicle control (ratio); hAMSC are human adipose-derived mesenchymal stem cells given an EGFP-luciferase plasmid by lipofection; higher = enhanced transfection
[6] = system: hAMSC donor 2; assay: as above
[7] = priming compound concentration 0.2 µM
[8] = priming compound concentration 1.7 µM
[9] = priming compound concentration 13 µM

Structure (SMILES)	Hoechst total cell count ratio [1, 7]	Hoechst total cell count ratio [1, 8]	Hoechst total cell count ratio [1, 9]	Hoechst total cell count ratio [2, 7]	Hoechst total cell count ratio [2, 8]	Hoechst total cell count ratio [2, 9]	transgenic luciferase activity [3, 8]	transgenic luciferase activity [4, 8]	transgenic luciferase activity [4, 9]	transfection efficiency [5, 7]	transfection efficiency [5, 8]	transfection efficiency [5, 9]	transfection efficiency [6, 7]	transfection efficiency [6, 8]	transfection efficiency [6, 9]	transgenic luciferase activity [3, 9]	transgenic luciferase activity [4, 7]
O=C1N(c2ccccc2)c2ccccc2C1(Cc1ccncc1)Cc1ccncc1 [Linopirdine dihydrochloride]	1.33 ± 0.12	1.18 ± 0.034	1.23 ± 0.028	1.36 ± 0.095	1.34 ± 0.21	1.05 ± 0.035	1.2 ± 0.23	0.313 ± 0.13	0.494 ± 0.073	0.777 ± 0.15	1.21 ± 0.22	1.18 ± 0.45	0.865 ± 0.13	0.966 ± 0.062	1.14 ± 0.22	–	–
CC(C)c1ccc2c(c1)c(SC(C)(C)C)c(CC(C)(C)C(=O)O)n2Cc1ccc(Cl)cc1	1.24 ± 0.17	1.11 ± 0.2	1.51 ± 0.16	1.44 ± 0.11	1.38 ± 0.15	1.58 ± 0.058	1.41 ± 0.21	0.713 ± 0.029	0.245 ± 0.064	0.821 ± 0.06	1.15 ± 0.84	0.834 ± 0.23	0.844 ± 0.12	0.896 ± 0.088	0.433 ± 0.064	–	–
CC(C[N+](C)(C)C)OC(N)=O (stereo not given) [Bethanechol chloride]	1.18 ± 0.16	1.48 ± 0.17	1.26 ± 0.23	1.08 ± 0.085	1.25 ± 0.013	1.36 ± 0.16	–	–	0.593 ± 0.064	1.14 ± 0.23	0.666 ± 0.19	1.08 ± 0.071	1.4 ± 0.21	0.949 ± 0.027	0.927 ± 0.15	1.76 ± 1.4	0.941 ± 0.15
CO[C@H]1/C=C/O[C@@]2(C)Oc3c(C)c(O)c4c(c3C2=O)C2=NC3(CCN(CC(C)C)CC3)NC2=C(NC(=O)/C(C)=C\C=C\[C@H](C)[C@H](O)[C@@H](C)[C@@H](O)[C@@H](C)[C@H](OC(C)=O)[C@@H]1C)C4=O [Rifabutin]	1.38 ± 0.22	1.55 ± 0.078	1.43 ± 0.2	1.21 ± 0.054	1.03 ± 0.2	1.56 ± 0.16	–	–	0.416 ± 0.079	1.05 ± 0.37	1.06 ± 0.15	0.543 ± 0.24	0.982 ± 0.032	0.864 ± 0.088	0.682 ± 0.11	0.68 ± 0.073	0.721 ± 0.12
CC(=O)CCCCn1c(=O)c2c(ncn2C)n(C)c1=O [Pentoxifylline]	1.4 ± 0.14	1.24 ± 0.042	1.32 ± 0.2	1.31 ± 0.3	1.24 ± 0.063	1.32 ± 0.2	1.05 ± 0.32	1.43 ± 0.2	0.805 ± 0.16	0.735 ± 0.066	1.11 ± 0.058	1.28 ± 0.21	0.792 ± 0.092	1.11 ± 0.044	0.957 ± 0.22	–	–
O=C(NCC1CCCCN1)c1cc(OCC(F)(F)F)ccc1OCC(F)(F)F (stereo not given) [Flecainide hydrochloride]	1.22 ± 0.16	1.17 ± 0.17	1.59 ± 0.17	1.3 ± 0.11	1.49 ± 0.092	1.38 ± 0.12	0.905 ± 0.19	0.789 ± 0.3	0.478 ± 0.073	2.28 ± 2.2	1.26 ± 0.1	0.815 ± 0.18	0.964 ± 0.17	0.953 ± 0.019	0.861 ± 0.034	–	–
NC(=O)c1cccnc1 [Nicotinamide]	1.29 ± 0.3	1.35 ± 0.18	1.1 ± 0.15	1.18 ± 0.05	1.24 ± 0.008	1.45 ± 0.14	–	–	0.542 ± 0.14	0.9 ± 0.24	1.09 ± 0.11	0.95 ± 0.12	1.17 ± 0.18	0.846 ± 0.064	0.917 ± 0.16	1.02 ± 0.22	0.62 ± 0.087
Nc1ccn([C@@H]2O[C@H](CO)[C@@H](O)[C@@H]2O)c(=O)n1 [Cytarabine]	1.14 ± 0.13	1.09 ± 0.088	1.12 ± 0.049	1.36 ± 0.2	1.13 ± 0.25	1.2 ± 0.053	0.776 ± 0.17	0.825 ± 0.026	–	0.978 ± 0.3	1.39 ± 0.065	1.45 ± 0.28	0.962 ± 0.2	0.969 ± 0.15	0.942 ± 0.2	–	0.933 ± 0.13
CCN1CCN(C(=O)N[C@@H](C(=O)N[C@@H]2C(=O)N3[C@@H]2SC(C)(C)[C@@H]3C(=O)O)c2ccccc2)C(=O)C1=O [Piperacillin sodium]	1.38 ± 0.2	1.5 ± 0.079	1.25 ± 0.07	1.09 ± 0.1	1.06 ± 0.065	1.17 ± 0.1	–	–	0.399 ± 0.049	1.17 ± 0.44	1.09 ± 0.086	1.28 ± 0.27	1.22 ± 0.098	0.808 ± 0.039	1 ± 0.022	0.988 ± 0.33	0.735 ± 0.11
CN1C(=O)CC[C@H]1c1cccnc1 [(-)-Cotinine]	1.14 ± 0.046	1.02 ± 0.013	1.19 ± 0.05	1.19 ± 0.25	1.05 ± 0.15	1.11 ± 0.21	0.914 ± 0.2	0.718 ± 0.049	–	1.14 ± 0.32	1.26 ± 0.34	1.7 ± 1.1	0.938 ± 0.13	1.16 ± 0.16	1.02 ± 0.027	–	1.24 ± 0.32
OC(CCN1CCCCC1)(c1ccccc1)C1CCCCC1 (stereo not given) [Trihexyphenidyl hydrochloride]	1.14 ± 0.038	1.16 ± 0.12	1.25 ± 0.11	0.858 ± 0.087	1.31 ± 0.14	1.71 ± 0.12	0.498 ± 0.021	0.823 ± 0.16	–	0.874 ± 0.07	0.553 ± 0.26	1.41 ± 0.36	1.33 ± 0.16	1.06 ± 0.16	0.621 ± 0.12	–	0.84 ± 0.25
O=C(NCCN1CCOCC1)c1ccc(Cl)cc1 [Moclobemide]	1.13 ± 0.086	1.19 ± 0.057	1.12 ± 0.088	1.42 ± 0.15	1.32 ± 0.054	1.16 ± 0.031	0.906 ± 0.43	0.737 ± 0.12	0.467 ± 0.085	0.916 ± 0.32	1.01 ± 0.33	1.13 ± 0.34	0.845 ± 0.17	1.03 ± 0.22	1 ± 0.067	–	–
O=C(O[C@@H]1Cc2c(O)cc(O)cc2O[C@@H]1c1cc(O)c(O)c(O)c1)c1cc(O)c(O)c(O)c1 [Epigallocatechin gallate]	1.02 ± 0.019	0.939 ± 0.21	0.873 ± 0.097	1.14 ± 0.16	0.948 ± 0.11	0.954 ± 0.023	1.69 ± 0.85	0.876 ± 0.18	0.645 ± 0.083	1.01 ± 0.086	1.21 ± 0.53	0.974 ± 0.18	0.894 ± 0.15	0.92 ± 0.21	0.903 ± 0.14	–	–
COc1cc(Cc2cnc(N)nc2N)cc(OC)c1OC [Trimethoprim]	1.17 ± 0.021	1.08 ± 0.026	1.19 ± 0.059	1.11 ± 0.14	1.12 ± 0.33	1.42 ± 0.35	0.561 ± 0.06	1.34 ± 0.018	–	1.02 ± 0.25	0.768 ± 0.062	1.41 ± 0.43	1.5 ± 0.52	1.81 ± 0.27	1.15 ± 0.28	–	1.78 ± 0.55
C#C[C@]1(O)CC[C@H]2[C@@H]3[C@H](C)CC4=C(CCC(=O)C4)[C@H]3CC[C@@]21C [Tibolone]	1.05 ± 0.058	1.03 ± 0.022	1.102 ± 0.0067	1.23 ± 0.088	1.18 ± 0.072	1.26 ± 0.034	1.1 ± 0.13	0.801 ± 0.096	–	1.1 ± 0.099	1.32 ± 0.51	1.07 ± 0.28	0.988 ± 0.21	1.09 ± 0.32	0.991 ± 0.2	–	0.78 ± 0.086

A draw from above in order of molar mass, rising.
Structure (SMILES)	Hoechst total cell count ratio [1, 7]	Hoechst total cell count ratio [1, 8]	Hoechst total cell count ratio [1, 9]	Hoechst total cell count ratio [2, 7]	Hoechst total cell count ratio [2, 8]	Hoechst total cell count ratio [2, 9]	transgenic luciferase activity [3, 8]	transgenic luciferase activity [4, 8]	transgenic luciferase activity [4, 9]	transfection efficiency [5, 7]	transfection efficiency [5, 8]	transfection efficiency [5, 9]	transfection efficiency [6, 7]	transfection efficiency [6, 8]	transfection efficiency [6, 9]	transgenic luciferase activity [3, 9]	transgenic luciferase activity [4, 7]
CN1C(=O)CC[C@H]1c1cccnc1 [(-)-Cotinine]	1.14 ± 0.046	1.02 ± 0.013	1.19 ± 0.05	1.19 ± 0.25	1.05 ± 0.15	1.11 ± 0.21	0.914 ± 0.2	0.718 ± 0.049	–	1.14 ± 0.32	1.26 ± 0.34	1.7 ± 1.1	0.938 ± 0.13	1.16 ± 0.16	1.02 ± 0.027	–	1.24 ± 0.32
O=C(NCCN1CCOCC1)c1ccc(Cl)cc1 [Moclobemide]	1.13 ± 0.086	1.19 ± 0.057	1.12 ± 0.088	1.42 ± 0.15	1.32 ± 0.054	1.16 ± 0.031	0.906 ± 0.43	0.737 ± 0.12	0.467 ± 0.085	0.916 ± 0.32	1.01 ± 0.33	1.13 ± 0.34	0.845 ± 0.17	1.03 ± 0.22	1 ± 0.067	–	–
OC(CCN1CCCCC1)(c1ccccc1)C1CCCCC1 (stereo not given) [Trihexyphenidyl hydrochloride]	1.14 ± 0.038	1.16 ± 0.12	1.25 ± 0.11	0.858 ± 0.087	1.31 ± 0.14	1.71 ± 0.12	0.498 ± 0.021	0.823 ± 0.16	–	0.874 ± 0.07	0.553 ± 0.26	1.41 ± 0.36	1.33 ± 0.16	1.06 ± 0.16	0.621 ± 0.12	–	0.84 ± 0.25
